Experimental data from publication doi:10.1101/394981.
Results are given in words; binding and its absence hold for the method and conditions named. For part of these data: In cells and extracts the contact can be indirect. Some results given as binding are weak or reduced against the parent protein; the word gives no strength. Tags and fused reporters may be left off the sequences shown. Blank lines part the entries; values can stand above or below the molecule they belong to.

Sequences of proteins named here, by UniProt entry; tags and fusion partners are left off. A change or cut given only in a name is not applied to a line headed by its entry. Residues count along the entry.
UniProt Q9VEN2: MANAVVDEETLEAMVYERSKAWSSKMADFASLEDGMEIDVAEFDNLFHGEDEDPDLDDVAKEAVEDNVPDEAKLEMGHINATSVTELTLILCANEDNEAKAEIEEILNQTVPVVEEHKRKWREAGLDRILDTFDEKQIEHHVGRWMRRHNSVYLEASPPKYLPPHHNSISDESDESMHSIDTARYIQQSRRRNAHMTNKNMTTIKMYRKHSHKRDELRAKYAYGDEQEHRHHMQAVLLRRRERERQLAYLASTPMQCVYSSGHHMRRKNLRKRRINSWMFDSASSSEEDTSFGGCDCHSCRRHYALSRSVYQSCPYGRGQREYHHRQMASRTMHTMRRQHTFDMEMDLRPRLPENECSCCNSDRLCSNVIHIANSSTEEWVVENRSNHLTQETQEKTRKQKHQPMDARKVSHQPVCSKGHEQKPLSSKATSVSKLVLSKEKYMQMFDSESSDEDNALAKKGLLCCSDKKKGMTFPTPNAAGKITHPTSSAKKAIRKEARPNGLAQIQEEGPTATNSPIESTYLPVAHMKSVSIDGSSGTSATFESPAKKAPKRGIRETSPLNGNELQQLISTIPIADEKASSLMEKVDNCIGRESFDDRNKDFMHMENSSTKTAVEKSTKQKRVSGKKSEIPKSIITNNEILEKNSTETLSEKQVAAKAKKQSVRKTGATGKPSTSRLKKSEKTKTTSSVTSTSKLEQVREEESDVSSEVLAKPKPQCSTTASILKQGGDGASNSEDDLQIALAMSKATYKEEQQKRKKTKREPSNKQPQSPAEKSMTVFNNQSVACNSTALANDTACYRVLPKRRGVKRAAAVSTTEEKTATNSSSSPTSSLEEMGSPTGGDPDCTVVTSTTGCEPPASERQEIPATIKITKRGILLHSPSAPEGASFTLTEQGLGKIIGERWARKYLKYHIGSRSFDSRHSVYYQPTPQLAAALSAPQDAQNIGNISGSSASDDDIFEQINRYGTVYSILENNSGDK
CAL1 C-terminus (amino acids 680-979), yeast two-hybrid fusion (pMM6): residues 680-979 of Q9VEN2
UniProt Q9V6Q2: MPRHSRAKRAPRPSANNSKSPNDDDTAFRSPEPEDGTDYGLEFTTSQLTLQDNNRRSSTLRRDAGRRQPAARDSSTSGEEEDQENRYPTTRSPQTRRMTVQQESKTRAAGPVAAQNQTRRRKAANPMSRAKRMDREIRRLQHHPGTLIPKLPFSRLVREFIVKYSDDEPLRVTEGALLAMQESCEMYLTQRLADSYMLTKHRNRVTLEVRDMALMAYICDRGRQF

Assays:
[1] = target: T1, GST-Zw10 (Drosophila melanogaster) (UniProt Q9W4X9); assay: pull-down
T1 sequence: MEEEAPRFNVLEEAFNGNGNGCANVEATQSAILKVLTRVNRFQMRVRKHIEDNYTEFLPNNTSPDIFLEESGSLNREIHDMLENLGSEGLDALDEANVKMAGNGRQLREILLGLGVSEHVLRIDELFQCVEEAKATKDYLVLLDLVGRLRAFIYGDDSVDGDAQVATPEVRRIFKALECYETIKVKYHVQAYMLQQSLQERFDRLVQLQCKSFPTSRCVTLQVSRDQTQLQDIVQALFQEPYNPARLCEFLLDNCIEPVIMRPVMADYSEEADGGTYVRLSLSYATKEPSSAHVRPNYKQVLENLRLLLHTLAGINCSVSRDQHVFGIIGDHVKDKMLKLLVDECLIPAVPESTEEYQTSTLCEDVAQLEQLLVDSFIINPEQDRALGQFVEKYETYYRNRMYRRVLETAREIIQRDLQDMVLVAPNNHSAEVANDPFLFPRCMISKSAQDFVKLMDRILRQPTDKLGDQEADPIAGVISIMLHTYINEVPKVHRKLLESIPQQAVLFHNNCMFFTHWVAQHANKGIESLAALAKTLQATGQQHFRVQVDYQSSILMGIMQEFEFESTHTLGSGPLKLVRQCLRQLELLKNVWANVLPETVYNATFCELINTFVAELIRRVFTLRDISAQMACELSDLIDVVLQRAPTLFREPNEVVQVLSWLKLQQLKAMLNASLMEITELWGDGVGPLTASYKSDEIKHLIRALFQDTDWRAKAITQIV

[2] = target: T2, GFP-Zw10 (Drosophila melanogaster) (UniProt Q9W4X9); assay: co-IP
T2 sequence: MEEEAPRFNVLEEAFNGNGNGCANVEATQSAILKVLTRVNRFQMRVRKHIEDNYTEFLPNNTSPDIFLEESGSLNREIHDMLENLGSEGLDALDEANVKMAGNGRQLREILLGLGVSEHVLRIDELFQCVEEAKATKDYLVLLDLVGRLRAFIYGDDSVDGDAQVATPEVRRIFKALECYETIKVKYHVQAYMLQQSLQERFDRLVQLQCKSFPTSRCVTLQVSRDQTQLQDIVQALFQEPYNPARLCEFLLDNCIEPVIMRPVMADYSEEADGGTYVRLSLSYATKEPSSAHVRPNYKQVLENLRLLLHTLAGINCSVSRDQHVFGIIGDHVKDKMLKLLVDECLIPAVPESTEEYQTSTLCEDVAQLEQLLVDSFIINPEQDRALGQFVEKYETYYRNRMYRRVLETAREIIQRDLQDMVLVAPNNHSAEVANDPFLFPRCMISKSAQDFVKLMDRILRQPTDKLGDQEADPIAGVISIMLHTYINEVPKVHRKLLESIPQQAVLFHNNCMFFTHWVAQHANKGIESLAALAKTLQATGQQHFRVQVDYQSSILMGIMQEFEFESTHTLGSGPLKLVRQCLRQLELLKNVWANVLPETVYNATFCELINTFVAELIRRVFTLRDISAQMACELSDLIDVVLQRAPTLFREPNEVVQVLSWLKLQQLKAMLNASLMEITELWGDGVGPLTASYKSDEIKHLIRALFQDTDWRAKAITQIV

[3] = target: CAL1, full length, yeast two-hybrid fusion (pMM6) (Drosophila melanogaster) (UniProt Q9VEN2); assay: two-hybrid
[4] = target: CAL1 C-terminus (amino acids 680-979), yeast two-hybrid fusion (pMM6) (Drosophila melanogaster) (UniProt Q9VEN2); assay: two-hybrid
[5] = target: CENP-A, yeast two-hybrid fusion (pMM6) (Drosophila melanogaster) (UniProt Q9V6Q2); assay: two-hybrid

Molecule: His-Sumo-CAL1 (from UniProt Q9VEN2 1-979)
binding [1]: binds

Molecule: CAL1 in lysate of S2 cells that express GFP-Zw10 (from UniProt Q9VEN2 1-979)
binding [2]: binds

Next, values leading:

binding [3]: binds weakly
B1: Zw10, full length, yeast two-hybrid fusion (pMM5) (protein, UniProt Q9W4X9 1-721)
chain: MEEEAPRFNVLEEAFNGNGNGCANVEATQSAILKVLTRVNRFQMRVRKHIEDNYTEFLPNNTSPDIFLEESGSLNREIHDMLENLGSEGLDALDEANVKMAGNGRQLREILLGLGVSEHVLRIDELFQCVEEAKATKDYLVLLDLVGRLRAFIYGDDSVDGDAQVATPEVRRIFKALECYETIKVKYHVQAYMLQQSLQERFDRLVQLQCKSFPTSRCVTLQVSRDQTQLQDIVQALFQEPYNPARLCEFLLDNCIEPVIMRPVMADYSEEADGGTYVRLSLSYATKEPSSAHVRPNYKQVLENLRLLLHTLAGINCSVSRDQHVFGIIGDHVKDKMLKLLVDECLIPAVPESTEEYQTSTLCEDVAQLEQLLVDSFIINPEQDRALGQFVEKYETYYRNRMYRRVLETAREIIQRDLQDMVLVAPNNHSAEVANDPFLFPRCMISKSAQDFVKLMDRILRQPTDKLGDQEADPIAGVISIMLHTYINEVPKVHRKLLESIPQQAVLFHNNCMFFTHWVAQHANKGIESLAALAKTLQATGQQHFRVQVDYQSSILMGIMQEFEFESTHTLGSGPLKLVRQCLRQLELLKNVWANVLPETVYNATFCELINTFVAELIRRVFTLRDISAQMACELSDLIDVVLQRAPTLFREPNEVVQVLSWLKLQQLKAMLNASLMEITELWGDGVGPLTASYKSDEIKHLIRALFQDTDWRAKAITQIV

binding [4]: binds
B2: Zw10 C-terminus (amino acids 482-721), yeast two-hybrid fusion (pMM5) (domain or fragment, UniProt Q9W4X9 482-721)
chain: MLHTYINEVPKVHRKLLESIPQQAVLFHNNCMFFTHWVAQHANKGIESLAALAKTLQATGQQHFRVQVDYQSSILMGIMQEFEFESTHTLGSGPLKLVRQCLRQLELLKNVWANVLPETVYNATFCELINTFVAELIRRVFTLRDISAQMACELSDLIDVVLQRAPTLFREPNEVVQVLSWLKLQQLKAMLNASLMEITELWGDGVGPLTASYKSDEIKHLIRALFQDTDWRAKAITQIV

binding [3]: no binding | binding [5]: no binding
B3: Zwilch, yeast two-hybrid fusion (pMM5) (protein, UniProt Q9VA00 1-641)
chain: MSASANLANVYAELMRRCGESYTITYGAPPTYLVSMVGAAEAGKKIVLVFKEDRNGAVARLRTTPTRAAPKKEGSADLDLTGSPLKDDCLVDAIADLSIDLQLDHSNPWKLEEEYQRGIPVDKARSIVCSEFLQLAEGLGSVWFLCDGSDLGQTQLLQYEFNPTHFSRGILSYQGVRPAYLVTSQALVRHHGKTPDETLIENSYQVNPHMRLRCSWTSSAALPLLVNLNDCDVALNHTFRVGDCGPLTQDFMNQLRILVYIREDIVSYHTDVKQGVSRDPTYRCGSGIDMDELRESINQTMTDVSGLIGRYSISNAEFDIEDVVQRAKVRQLTDLTDKLWELLKCCHSYKDLKIAFSMLFQCAARCNIVNTPTNKNRLAKIITELANRRLAMPCLSGAEPLELLLEIGLEKLYKDYEFIYTESKMCSTNLLKDDSSGASMDDGSPQNLPQLRKSLHNAVRGDPTPGAGMRKTLLHHHGAVNSRSTKYAGSDDDAGFKNSHFDEHESTERISKLFQIHCTLEHLLMMHIHLNLANVYNDVCSELLKKPPKLVESIDDQLSDVMDIRLSAHYVRDHLDGKDPYSRHITMRSHNKFRELKTTFYFNSENICPPNLAQCFQCDDKEMVKERTYHSWIYHKIRSLK
